# Results published in PubChem BioAssay AID2685 (National Center for Advancing Translational Sciences (NCATS), 2010).
# The other results are listed elsewhere or left out. The main result of the screen is listed elsewhere. These columns were measured beside it and carry no call. Compounds called inactive in the main read-out are mostly missing here. Potencies come from curve fits of mixed quality, noted in brackets.
# Assay: qHTS Assay for Lipid Storage Modulators in Drosophila S3 Cells;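 on cell number change: cells counted by Cell Tracker Red CMTPX staining in the red channel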
# Details: BODIPY lipid droplet fluorescence, 18-24 h; for cell number change: measured here: cell count max response, cells fed with added oleic acid
# Procedure, shortened: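 Drosophila S3 cells loaded with oleic acid (400 uM, as added) and compounds at several concentrations; lipid droplets imaged by 488-nm laser-scanning cytometry, 500–530 nm intensity and object ratio to cell channel. Percent activity normalized to 20 uM Triacsin C.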
# [1] = measured here: cell number channel AC50, cells fed with added oleic acid
# [2] = measured here: lipid fluorescence (Fed channel) AC50, cells fed with added oleic acid
SMILES,cell number change,AC50 [1],AC50 [2]
C=CCn1cc(/C=N\NC(=O)c2cc3c(ccc4ccccc43)o2)c2ccccc21,-10.6%,–,–
O=C(OCc1ccccc1)c1ccc2c(c1)-c1ccccc1C2=O,58.3%,"18.4 µM [rising, single point]",–
O=C(NN=C1c2ccccc2-c2ccccc21)c1cccc(Br)c1,-40.4%,"5.8 µM [falling, full curve]","6.51 µM [falling, partial curve]"
O=C1C=CC(=O)N1c1ccc(OC(F)F)cc1,-74.8%,"25.9 µM [falling, partial curve]","29.1 µM [falling, partial curve, poor fit]"
CCN(CC(=O)NCc1ccc(Cl)cc1)C(=O)COc1cccc(Cl)c1,-8.26%,–,"9.2 µM [falling, partial curve, poor fit]"
CC(=O)Nc1cccc(NC(=O)Nc2ccc(C)c(Cl)c2)c1,-42.8%,–,–
COc1cc(CN2CCC(n3nccc3NC(=O)CCCc3ccccc3)CC2)ccc1F,0.917%,–,"0.13 µM [rising, full curve, poor fit]"
Nc1nc(NC2CCCCC2)nc(NCCO)c1[N+](=O)[O-],6.94%,–,–
CCOC(=O)C1CCCN(S(=O)(=O)c2ccc3c(c2)N(C(C)=O)CCO3)C1 (stereo not drawn),–,"1.64 µM [falling, partial curve]",–
CC(C)(C)c1cc(/C=C2\NC(=O)NC2=O)cc(C(C)(C)C)c1O,-30.3%,"18.4 µM [falling, single point]","8.2 µM [falling, partial curve]"
CC(NC(=O)c1ccccc1Cl)C(=O)NCc1cccs1 (stereo not drawn),–,–,"0.13 µM [falling, full curve, poor fit]"
O=C(Cc1coc2ccc3ccccc3c12)N1CCc2ccccc21,5.44%,–,–
O=C(Nc1ccncc1)C1COc2ccccc2O1 (stereo not drawn),-16.7%,–,–
CCCCNC(=O)NNC(=O)C1CC1(c1ccccc1)c1ccccc1 (stereo not drawn),-4.23%,–,"29.1 µM [falling, single point]"
O=C(O)CC1=C(Nc2ccccc2)C(=O)N(c2ccccc2)C1c1ccc(Br)cc1 (stereo not drawn),-15.4%,–,"32.6 µM [falling, single point]"
Cc1cccc(C)c1OCc1cc(C(=O)N(C)Cc2cc(C3CC3)n[nH]2)no1,4.74%,–,"2.06 µM [falling, full curve, poor fit]"
O=C(c1ccco1)N1CCN(c2ccnc3cc(Cl)ccc23)CC1,-12.4%,–,"0.58 µM [falling, full curve]"
Cc1cc(C)cc(OCC(O)CN2CC(C)OC(C)C2)c1 (stereo not drawn),5.62%,–,"0.731 µM [rising, single point]"
c1ccc(-c2noc(C34CC5CC(CC(C5)C3)C4)n2)nc1,-69%,"29.1 µM [falling, single point]",–

SMILES,cell number change,AC50 [1],AC50 [2]
COc1ccc(C(=O)NCCc2nnc(SCC(=O)Nc3ccc(Br)cc3)n2C)cc1,110%,"29.1 µM [rising, single point]","29.1 µM [rising, single point]"
N#CC(C#N)=C1C=CC=CN1/C(=C\c1ccco1)C(=O)c1ccc(Br)cc1,-44.8%,"5.17 µM [falling, full curve]","5.17 µM [falling, full curve]"
Cc1ccc(/C=N/NC(=O)CSc2nc3ccccc3s2)o1,18.2%,–,"0.00517 µM [falling, full curve, poor fit]"
O=C(Nc1ccc(N2CCOCC2)cc1)C1=NN(c2ccccc2)C(=O)CC1,-22.9%,"0.00651 µM [falling, full curve, poor fit]",–
CCCCN1CC(=O)N2[C@H]3c4cc(C)ccc4OC[C@@H]3[C@H](C(=O)OCC)[C@]2(C)C1=O,-26.4%,–,"0.164 µM [falling, full curve]"
Cc1ccccc1-n1nnc2c(=O)oc3ccccc3c21,-119%,"23.1 µM [falling, partial curve]","25.9 µM [falling, partial curve]"
O=C(CCCn1nnc2ccccc2c1=O)N[C@H](C(=O)O)c1ccccc1,-59.4%,"29.1 µM [falling, single point]","29.1 µM [falling, single point]"
COC(=O)C1=C(C)N(Cc2ccccc2)C(=NCCc2c[nH]c3ccccc23)N[C@H]1c1ccccc1,-1.16%,–,"7.31 µM [falling, partial curve]"
CCOC(=O)C1(Cc2cccc(OC)c2)CCN(CC(O)CO)CC1 (stereo not drawn),-34.3%,–,"10.3 µM [falling, partial curve, poor fit]"
O=[N+]([O-])c1ccccc1/C=C/CN1CCCC(CO)C1 (stereo not drawn),11.9%,–,"0.731 µM [rising, single point]"
N#C/C(=C\c1cccc(Cl)c1)C(=O)c1ccccc1,-5.02%,"2.91 µM [falling, single point]",–
CCOC(=O)CC(=O)Nc1ccc(C(=O)OCC)cc1,–,"0.184 µM [falling, full curve, poor fit]","0.411 µM [falling, partial curve, poor fit]"
Cc1c(NS(=O)(=O)c2ccc([N+](=O)[O-])cc2)c(=O)n(-c2ccccc2)n1C,-0.824%,–,"29.1 µM [rising, single point]"
Cc1ccccc1N(C)S(=O)(=O)c1ccc2[nH]cc(C(=O)NCC3CCCO3)c(=O)c2c1 (stereo not drawn),–,"0.82 µM [rising, single point]",–
N#Cc1ccc(C(=O)OCC(=O)Nc2cccnc2Cl)cc1,25.4%,–,"0.82 µM [rising, partial curve, poor fit]"
CCCNC(=O)c1nnsc1S(=O)c1ccc(Cl)cc1 (stereo not drawn),-57.7%,–,–
COc1cc(C(=O)NNC(=O)COc2ccccc2Cl)ccc1OCC(=O)N1CCOCC1,13.3%,–,"1.64 µM [rising, full curve, poor fit]"
CCCC(=O)N(CCN1CCOCC1)c1nc2cc(C)c(C)cc2s1,-20.1%,–,"29.1 µM [falling, single point]"
COc1ccc(CN(C(=O)c2snc(C(N)=O)c2N)C(C(=O)NC2CCCC2)c2ccc(OC)c(OC)c2)cc1 (stereo not drawn),19.2%,–,–

# A section from the list above, as a working copy:
SMILES,cell number change,AC50 [1],AC50 [2]
COc1cc(C(=O)NNC(=O)COc2ccccc2Cl)ccc1OCC(=O)N1CCOCC1,13.3%,–,"1.64 µM [rising, full curve, poor fit]"
CCCC(=O)N(CCN1CCOCC1)c1nc2cc(C)c(C)cc2s1,-20.1%,–,"29.1 µM [falling, single point]"
